{"source": "PubChem BioAssay AID1259254, NCATS | 2017", "test": "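Finding genes that stop cells copying their DNA twice in one cycle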 (primary screen)", "cells": "human HCT116 colorectal cancer cells", "reagent": "single siRNA against human genes", "duration": "3 days", "detection": "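Nuclei stained with Hoechst and imaged; cell-cycle phase assigned by DNA content; G2 share scaled per plate, non-targeting siRNA 0%, GMNN siRNA 100%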", "reading the numbers": "G2 robust z-score: higher = more G2 cells, more excess DNA replication", "call rule": "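Active siRNAs have a G2 robust z of 5 or more median absolute deviations over the median, which in these data means about 38% or higher of GMNN control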", "note": "The whole screen tested about 59,000 reagents; below is a random part of them. About 1,550 of them (2.6%) were called active. 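G2 share is only a proxy for re-replication; each gene was hit by three separate siRNAs, and active genes were retested.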 The numbers tell different reagents against one gene apart. Not all columns of the deposit are shown. Not given: the amount of reagent."}
{"gene knocked down": "LURAP1", "reagent": 1, "G2 robust z-score": -0.629, "outcome": "inactive"}
{"gene knocked down": "LURAP1", "reagent": 2, "G2 robust z-score": 1.75, "outcome": "inactive"}
{"gene knocked down": "LURAP1", "reagent": 3, "G2 robust z-score": -1.1, "outcome": "inactive"}
{"gene knocked down": "MAPK10", "reagent": 1, "G2 robust z-score": -1.45, "outcome": "inactive"}
{"gene knocked down": "MAPK10", "reagent": 2, "G2 robust z-score": -0.997, "outcome": "inactive"}
{"gene knocked down": "MAPK10", "reagent": 3, "G2 robust z-score": -0.95, "outcome": "inactive"}
{"gene knocked down": "PEX2", "reagent": 1, "G2 robust z-score": -0.0799, "outcome": "inactive"}
{"gene knocked down": "PEX2", "reagent": 2, "G2 robust z-score": 0.409, "outcome": "inactive"}
{"gene knocked down": "PEX2", "reagent": 3, "G2 robust z-score": -1.01, "outcome": "inactive"}
{"gene knocked down": "ZKSCAN5", "reagent": 1, "G2 robust z-score": -0.0318, "outcome": "inactive"}
{"gene knocked down": "ZKSCAN5", "reagent": 2, "G2 robust z-score": -0.732, "outcome": "inactive"}
{"gene knocked down": "ZKSCAN5", "reagent": 3, "G2 robust z-score": -0.498, "outcome": "inactive"}
{"gene knocked down": "ZWILCH", "reagent": 1, "G2 robust z-score": -0.323, "outcome": "inactive"}
{"gene knocked down": "ZWILCH", "reagent": 2, "G2 robust z-score": 0.113, "outcome": "inactive"}
{"gene knocked down": "ZWILCH", "reagent": 3, "G2 robust z-score": -0.444, "outcome": "inactive"}
{"gene knocked down": "KCNJ4", "reagent": 1, "G2 robust z-score": -0.141, "outcome": "inactive"}
{"gene knocked down": "KCNJ4", "reagent": 2, "G2 robust z-score": 6.16, "outcome": "active"}
{"gene knocked down": "KCNJ4", "reagent": 3, "G2 robust z-score": 1.15, "outcome": "inactive"}

A few values from the list:
Entry for ZWILCH #2 in “G2 robust z-score”: 0.113
PEX2 #2, outcome: inactive
